The other results are listed elsewhere or left out. Shown are side measurements of this screen, not its main read-out; they come without a call. Most of these compounds were active or inconclusive in the main read-out, so they are no random draw. The note in brackets gives the kind of curve behind each potency; many fits are weak.

This note sets out measurements from PubChem BioAssay AID1487 (National Center for Advancing Translational Sciences (NCATS), 2009).

This assay in a line: qHTS Assay for Modulators of Lamin A Splicing. The settings on record: HeLa LMNA splicing GFP/RFP minigene ratio, 48 h. The method, boiled down:
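S3 HeLa stable clones carrying a lamin A-EGFP splicing minigene plus DsRed2 were seeded at 600 cells/well in Opti-MEM with 2% FBS, pin-dosed and incubated 48 h at 37°C. Acumen cytometry (488 nm) gave the GFP/RFP total-intensity ratio.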

Where [1] appears, read: measured here: GFP splicing reporter channel.
Setting [2] is: measured here: RFP viability control channel.

One may read the AC50 as the midpoint of the concentration-response curve, whichever way the signal moves. Turning to `O=S(=O)(Nc1ccc2nc(C(F)(F)F)[nH]c2c1)c1ccccc1`, the AC50 is 17.8 µM [rising, partial curve] under setting [1] and 15.8 µM [rising, partial curve] under setting [2].
`O=C1C(=O)N2C(=C1C(=O)N1CCCCCC1)c1ccccc1CC21CCCC1`: the AC50 under setting [1] was 22.4 µM [falling, single point] and the AC50 under setting [2] was 35.5 µM [falling, partial curve, poor fit].
`CC1(c2ccc3noc(-c4ccc(Cl)cc4)c3c2)OCCO1`: the AC50 under setting [1] is 14.1 µM [rising, single point] and the AC50 under setting [2] was 14.1 µM [rising, single point].
Turning to `COc1ccc(NC(=O)CSc2nc3c([nH]c4ccccc43)c(=O)n2-c2ccccc2)c(OC)c1`, the AC50 under setting [1] was 14.1 µM [falling, single point] and the AC50 under setting [2] was 31.6 µM [falling, single point].
As for `CC1CCN(S(=O)(=O)c2cccc(C(=O)Nc3ccccn3)c2)CC1`, the AC50 under setting [1] is 14.1 µM [rising, single point] and the AC50 under setting [2] is 22.4 µM [rising, single point].
Take `COc1ccc(/C=N/NC(=O)c2cc(Br)ccc2O)cc1Cn1cc(Cl)cn1`: the AC50 under setting [2] was 35.5 µM [rising, partial curve].
For the molecule `COc1ccc(N2CCN(C3CC(=O)N(Cc4ccccc4)C3=O)CC2)cc1` (centres undefined), the AC50 is, setting by setting: under setting [1], 12.6 µM [falling, partial curve, poor fit]; under setting [2], 0.158 µM [falling, full curve, poor fit].
With `O=C1[C@@H]2[C@@H]3C[C@@H]([C@H]4ON=C(c5ccc(Cl)cc5)[C@@H]34)[C@@H]2C(=O)N1C1CCCCC1`, the AC50 was 17.8 µM [rising, single point] under setting [1] and 28.2 µM [rising, partial curve] under setting [2].
As to `NC(=O)c1c(NC(=S)Nc2ccccc2)sc2c1CCCC2`, the AC50 under setting [2] is 0.00316 µM [falling, full curve].
With `Cc1cc(S(=O)(=O)C(CNC(=O)c2ccc(OC(C)C)cc2)c2cccs2)ccc1F` (centres undefined), the AC50 under setting [1] is 17.8 µM [falling, partial curve, poor fit].
`COc1cccc2c1ncc1c(-c3ccc(C)cc3)nn(-c3cccc([N+](=O)[O-])c3)c12`: the AC50 under setting [2] is 1 µM [falling, full curve, poor fit].
`O=C(Nc1ccc2c(c1)OCO2)c1ccc(N2CCCC2)c([N+](=O)[O-])c1`: the AC50 is 31.6 µM [rising, single point] under setting [1] and 35.5 µM [rising, single point] under setting [2].
As to `COC(=O)c1c(NC(=O)COc2ncnc3ccccc23)sc(C)c1C`, under setting [2], the AC50 was 35.5 µM [rising, single point].
Consider `Cc1ccccc1Cn1ccc(NC(=O)c2nn(C)cc2[N+](=O)[O-])n1`, for which the AC50 under setting [1] was 15.8 µM [falling, single point].
`COc1cc2c(cc1NC(=O)c1ccc3c(c1)OCO3)oc1ccccc12`: the AC50 reads like this: under setting [1], 12.6 µM [rising, single point]; under setting [2], 11.2 µM [rising, single point].
As for `Cc1ccc(C(=O)NC(=S)NCC2CCCO2)cc1Br` (centres undefined), the AC50 under setting [2] was 10 µM [rising, partial curve].
With `Cc1cccc(C)c1NC(=O)Cn1c(=O)n(CCCC(=O)NCc2ccco2)c(=O)c2sccc21`, the AC50 is, setting by setting: under setting [1], 0.0224 µM [rising, full curve, poor fit]; under setting [2], 7.94 µM [rising, partial curve, poor fit].
Regarding `Cc1cc(C)cc(NC(=O)C(=O)NCC(c2ccc3c(c2)OCO3)N2CCN(C)CC2)c1` (centres undefined), the AC50 under setting [2] is 6.31 µM [rising, single point].
In the case of `O=C1CSC(c2ccc([N+](=O)[O-])cc2)N1CCN1CCCCC1` (centres undefined), the AC50 was 0.891 µM [falling, partial curve] under setting [1] and 0.251 µM [falling, full curve, poor fit] under setting [2].
In the case of `O=C(COc1ccccc1)NCc1ccc2c(c1)CCN2C(=O)c1ccc(Cl)cc1`, the AC50 under setting [1] is 7.94 µM [rising, partial curve, poor fit].
In the case of `CC(C)Cn1c(=O)n(C)c(=O)c2[nH]cnc21`, the AC50 under setting [1] is 5.62 µM [falling, partial curve, poor fit].
For `Cn1cccc1Cc1nnc(SCC(N)=O)n1CCc1ccccc1`, the AC50 under setting [2] is 11.2 µM [rising, partial curve, poor fit].
With `O=C(N/N=C/c1cn(-c2ccccc2)nc1-c1ccc(F)cc1)c1ccc(Br)o1`, the AC50 is, setting by setting: under setting [1], 4.47 µM [rising, partial curve, poor fit]; under setting [2], 22.4 µM [rising, single point].
For the molecule `O=c1[nH]cnc2c1ncn2[C@@H]1O[C@H](CO)[C@@H](O)[C@H]1O`, the AC50 under setting [1] was 0.0178 µM [falling, full curve, poor fit].
Consider `O=C(NCc1ccco1)c1ccc(Cn2c(SCc3ccc(F)cc3)nc3cccnc32)cc1`, for which the AC50 under setting [1] is 31.6 µM [falling, single point].
With `COc1cccc(/C=C/c2nc3c(cnn3-c3ccccc3)c(=O)[nH]2)c1`, the AC50 under setting [1] is 0.0282 µM [rising, full curve, poor fit].
For `COc1ccc(N2C(=O)[C@@H]3[C@H](C2=O)[C@H](C(=O)c2ccc(OC(C)=O)cc2)N2N=CC=C[C@@H]32)cc1`, under setting [2], the half-maximal activity concentration (AC50) is 0.447 µM [rising, full curve, poor fit].
For the molecule `O=c1cc(-c2ccccc2)n2c(SCc3ccc(Cl)cc3)nnc2[nH]1`, the AC50 is 15.8 µM [rising, partial curve, poor fit] under setting [1] and 11.2 µM [rising, partial curve, poor fit] under setting [2].
For the molecule `CC(=O)c1cn(CC(=O)Nc2ccc(C)cc2)c2ccccc12`, the AC50 under setting [2] was 2.82 µM [rising, full curve].
For the molecule `CC1CCN(S(=O)(=O)c2ccc3c(c2)oc(=O)n3CC(=O)NCc2ccc3c(c2)OCO3)CC1`, the AC50 under setting [2] is 3.16 µM [rising, full curve].
Consider `CCOc1ccc(CN(C)CC(=O)NCc2ccccc2Cl)cc1`, for which the AC50 under setting [2] was 25.1 µM [rising, partial curve].
In the case of `CCc1ccc(-c2nc(CN3CCC(C(=O)NCCc4ccc(OC)c(OC)c4)CC3)c(C)o2)cc1`, the AC50 was 6.31 µM [rising, full curve, poor fit] under setting [1] and 12.6 µM [rising, partial curve] under setting [2].
For the molecule `CC(C)N(C(=O)c1ccc2nc(-c3ccccc3)c(-c3ccccc3)nc2c1)C(C)C`, the AC50 under setting [2] is 35.5 µM [rising, single point].
Turning to `Cc1ccc(C=Nc2ccccc2C(N)=O)s1`, under setting [2], the AC50 is 3.55 µM [rising, full curve].
For `CC1CCC2C(=O)N(c3ccc(NC4CCCCC4)c([N+](=O)[O-])c3)C(=O)C2C1` (centres undefined), the AC50 was 14.1 µM [rising, single point] under setting [1] and 31.6 µM [rising, single point] under setting [2].
Turning to `COc1cc2c(cc1OC)C(C(=O)NCc1ccco1)C1c3ccccc3CCN1C2=O` (centres undefined), the AC50 under setting [1] is 0.02 µM [rising, full curve, poor fit].
In the case of `CC(=O)Nc1cccc(C(=O)/C=C/c2ccc(C)cc2)c1`, the AC50 was 35.5 µM [falling, single point] under setting [1] and 14.1 µM [falling, single point] under setting [2].
Turning to `COc1ccccc1C(=O)Nn1c(C2CCC2)nc2ccccc2c1=O`, the AC50 under setting [2] is 25.1 µM [rising, single point].
With `CCCCOc1ccc(S(=O)(=O)NCc2csc(C)n2)cc1`, the AC50 reads like this: under setting [1], 12.6 µM [rising, partial curve]; under setting [2], 12.6 µM [rising, partial curve].
As to `COC(=O)c1[nH]c(C)c(/C(O)=C2\C(=O)C(=O)N(CCN(C)C)C2c2ccccc2OC)c1C` (centres undefined), under setting [2], the AC50 was 22.4 µM [rising, single point].
Regarding `Nc1nc(N2CCN(C/C=C/c3ccccc3)CC2)nc2ccccc12`, the AC50 under setting [2] was 25.1 µM [rising, single point].
As for `Cc1ccc(S(=O)(=O)Nc2ccccc2/C=N/c2nc3ccccc3n2C)cc1`, the AC50 under setting [2] was 0.0316 µM [rising, full curve].
Consider `O=C(NC(=S)Nc1ccc2c(c1)OCCO2)c1ccc(F)cc1Cl`, for which the AC50 under setting [1] is 14.1 µM [rising, single point] and the AC50 under setting [2] is 25.1 µM [rising, single point].
Consider `CCOC(=O)C1(Cc2ccccc2)CCN(C2Cc3ccccc3C2)CC1`, for which the AC50 is 17.8 µM [falling, partial curve, poor fit] under setting [1] and 15.8 µM [falling, partial curve] under setting [2].
Consider `COc1ccc(CNC(=O)C(=O)NCC2OCCN2S(=O)(=O)c2ccc3c(c2)OCCO3)cc1` (centres undefined), for which the AC50 under setting [2] is 15.8 µM [rising, single point].
For the molecule `Cc1ccccc1-c1nn2c(=O)cc(CN3CCN(C(=O)/C=C/c4ccccc4)CC3)nc2s1`, the AC50 under setting [1] was 11.2 µM [falling, partial curve, poor fit] and the AC50 under setting [2] is 11.2 µM [falling, partial curve].
For `Cc1cc(=O)n2c(ccc3ccccc32)c1C#N`, the AC50 under setting [1] is 1.58 µM [rising, partial curve].
In the case of `CC(C)(C)C(=O)NC(n1cnc2c(N3CCOCC3)ncnc21)C(Cl)(Cl)Cl` (centres undefined), under setting [1], the AC50 is 15.8 µM [falling, single point].
Take `CSCCC(NC(=O)c1ccc(Cl)cc1)C(=O)OCC(=O)Nc1cc(Cl)ccc1C#N` (centres undefined): under setting [1], the AC50 is 35.5 µM [rising, single point].
On to `Cc1cccc(N2C(N)=C(C#N)C(C#N)(C#N)C2c2ccccc2)c1` (centres undefined), for which the AC50 reads like this: under setting [1], 12.6 µM [rising, partial curve, poor fit]; under setting [2], 12.6 µM [rising, partial curve].
As to `CCCOC(=O)NC(CC)COC(=O)Nc1cc(C)ccc1C` (centres undefined), the AC50 runs as follows: under setting [1], 35.5 µM [rising, single point]; under setting [2], 35.5 µM [rising, single point].
As to `Cc1ccccc1NC1=C(Cl)C(=O)N(C2CCCCC2)C1=O`, the AC50 under setting [2] was 35.5 µM [rising, single point].
